Source: the supplement of paper PMC10735217
Counter-ions that a name gives are not always drawn. Some of the results follow. Single values are uncertain here, since repeats match poorly.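 In a drug-repurposing library screen, luminescence reads luciferase driven by eight TEAD-binding elements, stably integrated into human kidney-derived cells. Compounds scoring over five robust Z scores above the plate mean are called hits.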

System: HEK293A TEAD-LUC reporter
Experiment: TEAD-luciferase reporter activity (YAP activation), robust Z score vs plate; higher = stronger YAP/TEAD activation
Settings: 24 h

| SMILES | TEAD-luciferase reporter activity (compound concentration: 200 nM) | TEAD-luciferase reporter activity (compound concentration: 2 uM) | TEAD-luciferase reporter activity (compound concentration: 10 uM) |
| --- | --- | --- | --- |
| C=C(C)C1CCC2(C(=O)NCCc3cccc(C(=O)NCc4ccc(C(=O)NCCc5cnc[nH]5)cn4)c3)CCC3(C)C(CCC4C5(C)CCC(O)C(C)(C)C5CCC43C)C12 (configuration not stated) | inactive: 4.5 | inactive: -0.0357 | inactive: 3.51 |
| COc1ccccc1NC(=O)CCN1CCN(C(c2ccc(F)cc2)c2ccc(F)cc2)CC1 | inactive: -1.03 | inactive: -0.212 | inactive: -0.402 |
| C[C@H]1CC[C@H](n2c3cnccc3c3cnc(Nc4ccc5c(n4)CCN(C(=O)CO)C5)nc32)CC1 | inactive: -1.09 | inactive: -2.02 | inactive: 1.63 |
| Oc1cccc2cc3cccc(O)c3c(O)c12 [dithranol, Bioglan] | inactive: -0.611 |  | inactive: -1.15 |
| Oc1cccc2cc3cccc(O)c3c(O)c12 [dithranol] |  | inactive: -1.42 |  |
| CO[C@H]1C[C@@H]2CC[C@@H](C)[C@@](O)(O2)C(=O)C(=O)N2CCCC[C@H]2C(=O)O[C@H]([C@H](C)C[C@@H]2CC[C@@H](OC(=O)C(C)(CO)CO)[C@H](OC)C2)CC(=O)[C@H](C)/C=C(\C)[C@@H](O)[C@@H](OC)C(=O)[C@H](C)C[C@H](C)\C=C/C=C/C=C/1C [Temsirolimus] | inactive: -0.951 | inactive: -0.852 | inactive: 3.33 |
| Nc1nc(N)c2nc(-c3ccccc3)c(N)nc2n1 [Triamterene396-01-0] | inactive: -1.08 |  | inactive: -1.01 |
| Nc1nc(N)c2nc(-c3ccccc3)c(N)nc2n1 [triamterene] |  | inactive: 1.21 |  |
| Clc1cccc(Nc2ccncc2)c1 | inactive: -0.0845 | inactive: -0.652 | inactive: 2.71 |
| CC(C)(Sc1ccncc1-c1ccc(C#N)c2ccccc12)C(=O)O | inactive: 0.338 | inactive: -0.92 | inactive: 1.37 |
| CCCc1c2nc(-c3cc(S(=O)(=O)N4CCN(C)CC4)ccc3OCC)[nH]c(=O)c2nn1C [iso-Sildenafil] |  | active: 5.28 |  |
| CCCc1c2nc(-c3cc(S(=O)(=O)N4CCN(C)CC4)ccc3OCC)[nH]c(=O)c2nn1C | inactive: -0.189 |  | inactive: 1.11 |
| CC(C)c1cc(Oc2c(Cl)cc(-n3nc(C#N)c(=O)[nH]c3=O)cc2Cl)n[nH]c1=O | inactive: -0.774 | inactive: -0.654 | inactive: -0.146 |
| Nc1nc(=O)n([C@@H]2CS[C@H](CO)O2)cc1F [Emtricitabine] | inactive: -0.681 |  | inactive: 0.566 |
| O=C(O)c1ccc(NC(=O)C(CC2CCCC2)n2cnc(C(F)(F)F)c2)nc1 (configuration not stated) | inactive: -0.205 | inactive: -0.544 | inactive: 1.27 |
| Cc1ccc(S(=O)(=O)NC(=O)NN2CCCCCC2)cc1 | inactive: 0.943 |  | inactive: -2.16 |
| Cc1ccc(S(=O)(=O)NC(=O)NN2CCCCCC2)cc1 [Tolazamide] |  | inactive: -0.694 |  |
| CC1(C)OC(=O)C(Oc2ccc(Br)cn2)=C1c1ccc(S(C)(=O)=O)cc1 | inactive: -1 | inactive: -0.0126 | inactive: -1.01 |
| COc1cccc(CCc2ccccc2OCC[C@@H]2C[C@@H](O)CN2C)c1 | inactive: -0.975 | inactive: -0.101 | inactive: 2.66 |

Part of the list above, with tabs:
SMILES	TEAD-luciferase reporter activity (compound concentration: 200 nM)	TEAD-luciferase reporter activity (compound concentration: 2 uM)	TEAD-luciferase reporter activity (compound concentration: 10 uM)
COc1ccccc1NC(=O)CCN1CCN(C(c2ccc(F)cc2)c2ccc(F)cc2)CC1	inactive: -1.03	inactive: -0.212	inactive: -0.402
C[C@H]1CC[C@H](n2c3cnccc3c3cnc(Nc4ccc5c(n4)CCN(C(=O)CO)C5)nc32)CC1	inactive: -1.09	inactive: -2.02	inactive: 1.63
Oc1cccc2cc3cccc(O)c3c(O)c12 [dithranol, Bioglan]	inactive: -0.611		inactive: -1.15
Oc1cccc2cc3cccc(O)c3c(O)c12 [dithranol]		inactive: -1.42	

Further records

| SMILES | TEAD-luciferase reporter activity (compound concentration: 200 nM) | TEAD-luciferase reporter activity (compound concentration: 2 uM) | TEAD-luciferase reporter activity (compound concentration: 10 uM) |
| --- | --- | --- | --- |
| COc1ccc(CC(=O)N2Cc3ccccc3CC3(CCN(C)CC3)C2)cc1 | inactive: 1.38 |  | inactive: -0.261 |
| O=C(c1cnc(Nc2cccc(Cl)c2)nc1C(F)(F)F)N1CCC1 | inactive: -1.35 | inactive: 0.784 | inactive: -0.534 |
| CC(=O)N[C@H]1[C@H]([C@H](O)[C@H](O)CO)OC(C(=O)O)=C[C@@H]1NC(=N)N [zanamivir] | inactive: -1.03 | inactive: 3.55 | inactive: 4.1 |
| CN(C)CC(O)COc1ccc(-c2nc3c(N)nc(N)nc3nc2N)cc1 (configuration not stated) | inactive: -0.3 | inactive: 0.165 | inactive: 1.47 |
| CCCCNC(=N)NC(=N)N | inactive: -1.99 | inactive: -1.38 | active: 7.2 |
| O=C1C(=O)C(O)C(=O)C(O)C1=O (configuration not stated) | inactive: -2.19 | inactive: 0.348 | inactive: 4.38 |
| CCCCOC(=O)NC(CNC(=O)CC1CC(c2ccc(C(=N)N)cc2)=NO1)C(=O)OC (configuration not stated) | inactive: -2.28 | inactive: -0.561 | inactive: -0.528 |
| CC1(C)[C@H]2CC[C@]1(CS(=O)(=O)N(C1CCCCC1)C1CCCCC1)[C@@H](O)C2 | inactive: -0.868 | inactive: 2.78 | inactive: 4.62 |
| Nc1ncn([C@@H]2O[C@H](CO)[C@@H](O)[C@H]2O)c(=O)n1 [5-Azacytidine] | inactive: 4.41 | active: 8.51 | inactive: -0.863 |
| [O-][n+]1cccc2c1Nc1ccc(F)cc1C2(OCC1CC1)C(F)(F)F (configuration not stated) | inactive: -0.952 | inactive: 0.282 | inactive: 3.19 |
| CC(C)COc1ccc(CNC(=O)NCCCCN2CCCC(C)C2)cc1 (configuration not stated) | inactive: -1.19 | inactive: 0.395 | inactive: 0.673 |
| CC(=O)Nc1ccc(OC(=O)/C=C(C)/C=C/C=C(C)/C=C/C2=C(C)CCCC2(C)C)cc1 | inactive: 1.76 | inactive: -0.876 | inactive: -0.969 |
| N[C@@H](CCC(=O)N[C@@H](Cc1ccc(O)c(O)c1)C(=O)O)C(=O)O [Gludopa] | inactive: 0.171 | inactive: 0.362 | inactive: 1.2 |
| O=C1C[C@@H]2CCN(C(=O)Cc3ccccc3)C[C@@H]2CCN1 | inactive: 0.243 |  | inactive: 2.7 |
| O=C(Nc1ccc(C(=O)N2C[C@H]3CCCN3Cc3ccccc32)cc1)c1ccccc1-c1ccccc1 | inactive: -0.447 | inactive: -1.05 | inactive: 2.07 |
| O=c1[nH]c2cc3cc(OCCCCNC4CCCCC4)ccc3nc2[nH]1 | inactive: -0.54 | inactive: -1.59 | inactive: -1.29 |
| NC(=O)c1noc([C@H](CCCC2CCCCC2)CC(=O)NO)n1 | inactive: -0.172 | inactive: 0.347 | inactive: -0.892 |
| CCn1nnc([C@H]2O[C@@H](n3cnc4c(N)nc(NC(CO)Cc5ccccc5)nc43)[C@H](O)[C@@H]2O)n1 (some centres not stated) | inactive: -1.97 | inactive: -0.507 | inactive: 0.0865 |
| COc1cc(/C=N/NC(=O)c2ccncc2)ccc1O | inactive: -0.866 | inactive: -0.61 | inactive: -1.6 |

| SMILES | TEAD-luciferase reporter activity (compound concentration: 200 nM) | TEAD-luciferase reporter activity (compound concentration: 2 uM) | TEAD-luciferase reporter activity (compound concentration: 10 uM) |
| --- | --- | --- | --- |
| CC(Cc1cccc(C(F)(F)F)c1)NCCOC(=O)c1ccccc1 (configuration not stated) [benfluorex] | inactive: -0.277 | inactive: 0.453 | inactive: 0.245 |
| CC(=O)N(CC(O)CO)c1c(I)c(C(=O)NCC(O)CO)c(I)c(C(=O)NCC(O)CO)c1I (configuration not stated) [iohexol] | inactive: -1.3 | inactive: -0.833 | inactive: 0.725 |
| Clc1ccc(Oc2cccc(-c3nc4ccccc4n3CCN3CCCCC3)c2)cc1Cl | inactive: 0.505 | inactive: -0.355 | inactive: -1.5 |
| Cc1c[nH]c2ncnc(N3CCC(CN)(C(=O)Nc4cccc(OC(=O)N(C)C)c4)CC3)c12 | inactive: 0.551 | inactive: 0.993 | inactive: 1.28 |
| COc1cc(C(C)C)c2c(c1)S(=O)(=O)N(COC(=O)c1c(Cl)ccc(OCCN3CCOCC3)c1Cl)C2=O | inactive: 1.45 | inactive: -1.01 | inactive: -1.5 |
| Cc1nc(=O)c2c([nH]1)CCSC2 | inactive: 2.69 | inactive: -1.55 | inactive: 0.344 |
| CC1(C)O[C@@H]2C[C@H]3[C@@H]4C[C@H](F)C5=CC(=O)C=CC5(C)[C@H]4[C@@H](O)CC3(C)C2(C(=O)CO)O1 (some centres not stated) [Flunisolide] | inactive: 1.49 | inactive: -1.13 | inactive: 1.81 |
| [Cl][Zn][Cl] [Zinc Chloride] | inactive: 2.23 |  | inactive: 0.352 |
| CN(C)CCOc1ccccc1-c1nc(-c2ccccc2)no1 [irampanel hydrochloride] | inactive: -1.06 | inactive: -1.33 | inactive: 0.842 |
| Cc1cc(Nc2ncnc3ccc(NC4=NC(C)(C)CO4)cc23)ccc1Oc1ccn2ncnc2c1 [Irbinitinib] | inactive: -1.94 | inactive: -1.49 | inactive: 1.18 |
| COC1=CC(c2cc3ccccc3[nH]2)=N/C1=C\c1[nH]c(C)cc1C [obatoclax] | inactive: -0.646 | inactive: -1.88 | inactive: 0.0919 |
| CCCN1CCC(c2cccc(S(C)(=O)=O)c2)CC1 [pridopidine] | inactive: -3.15 | inactive: -0.886 | inactive: 1.64 |
| COc1ccc(NC(=O)CCC(=O)NCCc2ccccc2)cc1 | inactive: -1.31 | inactive: -1.76 | inactive: 2.82 |
| CNCCC(Oc1cccc2c1OCO2)c1cccs1 (configuration not stated) [Ammuxetine] | inactive: 1.51 | inactive: -0.206 | inactive: -0.678 |
| O=C(O)CC[C@@H](NC(=O)c1cc(Cl)cc(Cl)c1)C(=O)N1CCC2(CCCC2)CC1 | inactive: -0.745 | inactive: -0.0805 | inactive: -0.993 |
| CCOC(=O)C(=O)Nc1cc(C)c(Oc2ccc(O)c(C(O)c3ccc(F)cc3)c2)c(C)c1 (configuration not stated) [Axitirome] | inactive: -1.63 | inactive: 0.436 | inactive: 0.782 |
| COc1ccc([C@@H]2Sc3c(ccc4ccccc34)N(CCN(C)C)C(=O)[C@@H]2OC(C)=O)cc1 | inactive: -2.79 | inactive: -0.204 | inactive: -1.17 |
| CCOC(=O)Cc1ccc(-c2ccccc2)cc1 | inactive: 0.00863 | inactive: -1.29 | inactive: -0.605 |
